PubChem BioAssay AID504764 – Drosophila RNAi Screening Center, 2011

- Test: 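Knock-downs that raise or lower a Notch target reporter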 (primary screen)
- Cells: Drosophila Kc167 cells
- Reagents: long dsRNA against Drosophila genes
- Timing: about 5 days (4 days dsRNA, then 24 h after transfection)
- Conditions: transfection of constitutively active membrane-tethered Notch lacking the extracellular domain, read 24 h later
- Measured: 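Light from a Notch-responsive E(spl)m3 luciferase reporter under active Notch, with control-promoter and no-Notch reporter wells to normalise; raw counts from paired wells a and b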
- Scale: induced reporter light, run 1, well a and induced reporter light, run 1, well b: higher = more light from the Notch target reporter with active Notch; control promoter light, run 1, well a and control promoter light, run 1, well b: higher = more light from the viral control promoter (cell number, transfection, viability); uninduced reporter light, run 1, well a: higher = more light from the Notch target reporter without active Notch
- Hit rule: 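Wells with low control signal or poorly matching duplicates excluded; duplicates averaged; per source plate, z beyond ±2 for induced/control log2 ratio or beyond ±1.8 for induced/uninduced marks a hit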
- Meaning of the calls: active = modifier hit (raised or lowered Notch signal); inactive = not a hit
The screen tested about 22,000 reagents; below is an unselected part of those with a known target gene and a result. Of all reagents, 403 (1.9%) were called active. 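Unnormalised raw counts per well; ratio z-scores behind the hit calls and whether each hit raises or lowers signal are not deposited.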 Reagents against one gene are numbered here. Names joined by + are all predicted targets of the reagent. Not stated in the record: the amount of reagent.

Silencing of dpr12 (defective proboscis extension response 12) #1 gave: induced reporter light, run 1, well a = 61595; induced reporter light, run 1, well b = 64555; control promoter light, run 1, well a = 82285; control promoter light, run 1, well b = 79650; uninduced reporter light, run 1, well a = 3615; inactive.
Against dpr12 (defective proboscis extension response 12) #2, the entry reads induced reporter light, run 1, well a = 2.20e5; induced reporter light, run 1, well b = 1.96e5; control promoter light, run 1, well a = 1.89e5; control promoter light, run 1, well b = 1.82e5; uninduced reporter light, run 1, well a = 12455; inactive.
After knock-down of dpr12 (defective proboscis extension response 12) #3, the screen gave induced reporter light, run 1, well a = 2.28e5; induced reporter light, run 1, well b = 2.19e5; control promoter light, run 1, well a = 2.38e5; control promoter light, run 1, well b = 1.78e5; uninduced reporter light, run 1, well a = 14280; inactive.
CG33695 + cana #1 showed induced reporter light, run 1, well a = 89000; induced reporter light, run 1, well b = 70450; control promoter light, run 1, well a = 1.19e5; control promoter light, run 1, well b = 1.30e5; uninduced reporter light, run 1, well a = 6390; inactive.
CG33695 + cana #2 gave induced reporter light, run 1, well a = 1.39e5; induced reporter light, run 1, well b = 1.37e5; control promoter light, run 1, well a = 75480; control promoter light, run 1, well b = 72490; uninduced reporter light, run 1, well a = 16412; inactive.
Knock-down of Dhdds (Dehydrodolichyl diphosphate synthase subunit) gave: induced reporter light, run 1, well a = 1.46e5; induced reporter light, run 1, well b = 1.35e5; control promoter light, run 1, well a = 2.42e5; control promoter light, run 1, well b = 2.58e5; uninduced reporter light, run 1, well a = 10320; inactive.
After knock-down of CG7386 the results were induced reporter light, run 1, well a = 2.32e5; induced reporter light, run 1, well b = 1.42e5; control promoter light, run 1, well a = 1.79e5; control promoter light, run 1, well b = 1.87e5; uninduced reporter light, run 1, well a = 7720; inactive.
After knock-down of CG18599 #1, the screen gave induced reporter light, run 1, well a = 1.51e5; induced reporter light, run 1, well b = 1.62e5; control promoter light, run 1, well a = 1.79e5; control promoter light, run 1, well b = 1.81e5; uninduced reporter light, run 1, well a = 12475; inactive.
Against CG18599 #2, the entry reads inactive.
NijC (Ninjurin C) gave induced reporter light, run 1, well a = 60295; induced reporter light, run 1, well b = 76735; control promoter light, run 1, well a = 76310; control promoter light, run 1, well b = 52895; uninduced reporter light, run 1, well a = 4185; inactive.
CG32718 gave induced reporter light, run 1, well a = 96120; induced reporter light, run 1, well b = 91100; control promoter light, run 1, well a = 92205; control promoter light, run 1, well b = 77905; uninduced reporter light, run 1, well a = 5735; inactive.
Myb (Myb oncogene-like) scored induced reporter light, run 1, well a = 68830; induced reporter light, run 1, well b = 63710; control promoter light, run 1, well a = 77945; control promoter light, run 1, well b = 88245; uninduced reporter light, run 1, well a = 10240; active.
Against CG17486, the entry reads induced reporter light, run 1, well a = 91730; induced reporter light, run 1, well b = 72070; control promoter light, run 1, well a = 1.43e5; control promoter light, run 1, well b = 1.47e5; uninduced reporter light, run 1, well a = 6575; inactive.
Against CG31051, the entry reads induced reporter light, run 1, well a = 1.84e5; induced reporter light, run 1, well b = 2.60e5; control promoter light, run 1, well a = 2.72e5; control promoter light, run 1, well b = 3.72e5; uninduced reporter light, run 1, well a = 17780; inactive.
Knock-down of CG12880 resulted in: induced reporter light, run 1, well a = 1.77e5; induced reporter light, run 1, well b = 1.63e5; control promoter light, run 1, well a = 2.02e5; control promoter light, run 1, well b = 2.42e5; uninduced reporter light, run 1, well a = 12055; inactive.
For CG30076, the values are induced reporter light, run 1, well a = 1.82e5; induced reporter light, run 1, well b = 2.26e5; control promoter light, run 1, well a = 2.62e5; control promoter light, run 1, well b = 2.45e5; uninduced reporter light, run 1, well a = 19240; inactive.
For wntD (wnt inhibitor of Dorsal), the entry reads induced reporter light, run 1, well a = 2.22e5; induced reporter light, run 1, well b = 2.71e5; control promoter light, run 1, well a = 2.39e5; control promoter light, run 1, well b = 2.47e5; uninduced reporter light, run 1, well a = 16630; inactive.
Silencing of Fas2 (Fasciclin 2) #1 resulted in: induced reporter light, run 1, well a = 69250; induced reporter light, run 1, well b = 81325; control promoter light, run 1, well a = 92600; control promoter light, run 1, well b = 84380; uninduced reporter light, run 1, well a = 5415; inactive.
Against Fas2 (Fasciclin 2) #2 the deposit lists induced reporter light, run 1, well a = 67515; induced reporter light, run 1, well b = 90345; control promoter light, run 1, well a = 1.11e5; control promoter light, run 1, well b = 94735; uninduced reporter light, run 1, well a = 6410; inactive.
For Fas2 (Fasciclin 2) #3, the entry reads induced reporter light, run 1, well a = 1.81e5; induced reporter light, run 1, well b = 2.46e5; control promoter light, run 1, well a = 1.88e5; control promoter light, run 1, well b = 2.16e5; uninduced reporter light, run 1, well a = 11285; active.

No new results follow: entries from further up.
CG7386 | induced reporter light, run 1, well a = 2.32e5; induced reporter light, run 1, well b = 1.42e5; control promoter light, run 1, well a = 1.79e5; control promoter light, run 1, well b = 1.87e5; uninduced reporter light, run 1, well a = 7720; outcome = inactive
CG18599 #1 | induced reporter light, run 1, well a = 1.51e5; induced reporter light, run 1, well b = 1.62e5; control promoter light, run 1, well a = 1.79e5; control promoter light, run 1, well b = 1.81e5; uninduced reporter light, run 1, well a = 12475; outcome = inactive
CG18599 #2 | outcome = inactive
